Assay results from US20250206779A1 (UNIVERSIDAD DE CHILE, priority 2021, published 2025).

Assay: general procedure: Fmoc solid-phase peptide synthesis
Settings: whole synthesis, photodiode array detector

H-[dH][dF][dP][dH][dI][dY][dV][dR][dD]-OH (SMILES CC[C@@H](C)[C@@H](NC(=O)[C@@H](Cc1c[nH]cn1)NC(=O)[C@H]1CCCN1C(=O)[C@@H](Cc1ccccc1)NC(=O)[C@H](N)Cc1c[nH]cn1)C(=O)N[C@H](Cc1ccc(O)cc1)C(=O)N[C@@H](C(=O)N[C@H](CCCNC(=N)N)C(=O)N[C@H](CC(=O)O)C(=O)O)C(C)C)
purity (crude or final not stated): >98%

[ ]: non-standard residue; d: D form.
